# From PubChem BioAssay AID2685 (National Center for Advancing Translational Sciences (NCATS), 2010)
# Among all 320,000 compounds or so, about 2,100 (0.66%) were called active. This list was built around the results that the source calls inconclusive (neither active nor inactive); the mix of calls is not that of the screen. The call rests on the fitted dose curve; in most records, active means well fitted inhibition curve with a large enough effect in the signal ratio, with a control signal flat (not every such curve was filed as active); inconclusive means small, poorly fitted or top-dose-only effect, or effect the other way, or a change in a side signal; inactive means flat fitted curve, though single readings scatter; the % refers to the signal ratio. A potency beside an inconclusive call is a rough fit, not a confirmed value.
# Assay: qHTS Assay for Lipid Storage Modulators in Drosophila S3 Cells
# Conditions: BODIPY lipid droplet fluorescence, 18-24 h, cells fed with added oleic acid; lipid storage change, negative = inhibition: at 46.1 µM (top of the series) unless noted
# How it was run: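 Drosophila S3 cells loaded with oleic acid (400 uM, as added) and compounds at several concentrations; lipid droplets imaged by 488-nm laser-scanning cytometry, 500–530 nm intensity and object ratio to cell channel. Percent activity normalized to 20 uM Triacsin C.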
# On the % scale 0 is the no-effect control and ±100 the full control effect; potency means the concentration at half of the fitted maximal effect.
SMILES,"lipid storage change, negative = inhibition",Potency,outcome
COc1ccccc1NC(=O)Nc1ccccc1C#N,inconclusive: 29.7%,–,–
O=C(Nc1ccc(O)cc1)c1ccc2c(c1)C(=O)N(N1C(=O)c3ccccc3C1=O)C2=O,–,"inconclusive: 29.1 µM [falling, single point]",–
CC1=C(C(N)=O)C(c2ccc(C)o2)C(C(N)=O)=C(C)N1,–,"inconclusive: 1.84 µM [falling, partial curve]",–
CCCc1cc(=O)[nH]c(SCC(=O)c2ccc(S(=O)(=O)N3CCCC3)cc2)n1,inconclusive: 24.7%,–,–
O=S(=O)(NCC1(N2CCOCC2)CCCCC1)c1ccc(F)c(F)c1F,inconclusive: 14.1%,–,–
Cc1ccc(N(CC(=O)Nc2ccc(S(=O)(=O)N3CCOCC3)cc2)S(C)(=O)=O)cc1C,–,"inconclusive: 0.651 µM [falling, full curve, poor fit]",–
Cn1c(=O)n(CC(=O)Nc2ccccc2)c2ccccc21,inconclusive: 37.7%,–,–
CSCCC(NC(=O)c1ccccc1)C(=O)NCc1ccc(S(N)(=O)=O)cc1 (stereo unspecified),inconclusive: 167%,–,–
COc1ccccc1NC(=O)COC(=O)c1cc2c(s1)CCC2,inconclusive,–,–
Cc1cc(=O)[nH]c(SCn2nnc3ccccc3c2=O)n1,–,"inconclusive: 3.26 µM [falling, single point]",–
COc1cccc(-n2c(C)nn(CCOc3ccccc3)c2=O)c1,inconclusive: -12.4%,–,–
CN1CCN(CCC(=O)Nc2ccccc2)CC1,inconclusive: 17.9%,–,–
O=C(NCCNC(=O)c1cnccn1)c1ccc(Cl)c(Cl)c1,inconclusive: -87.1%,–,–
CC(C#N)(NC(=O)CN1CCN(S(=O)(=O)c2ccccc2C#N)CC1)C1CC1 (stereo unspecified),–,"inconclusive: 14.6 µM [activator, partial curve]",–
Cc1c(C(=O)Nc2ccc3c(c2)OCCO3)oc2ccc(Br)cc12,–,"inconclusive: 29.1 µM [falling, single point]",–
O=C(CSc1nnc(SCc2ccc(Cl)cc2)s1)c1ccc2c(c1)OCO2,–,"inconclusive: 2.31 µM [activator, partial curve]",–
CCOc1ccc(-n2nc3c(=O)n(CCN4CCCCC4)nc(C)c3c2C)cc1,inconclusive: 12.1%,–,–
COc1ccc(C2C3=C(CCCC3=O)Nc3c(-c4ccccc4)c(C)nn32)cc1 (stereo unspecified),inconclusive: 0.614%,–,–
O=C(c1cccc(S(=O)(=O)N2CCN(c3ccc(F)cc3)CC2)c1)N1CCCC(C(F)(F)F)C1 (stereo unspecified),inconclusive: -41.5%,–,–
CC(=O)Oc1ccc(N2C(=O)CC(N3CCOCC3)C2=O)cc1 (stereo unspecified),inconclusive: 47.5%,–,–
CC(C(=O)N1CCCC1)N(c1ccccc1)S(C)(=O)=O (stereo unspecified),inactive: 18.2%,–,–
COCCNC(=O)CN(CC1CCCO1)C(=O)CCC(=O)Nc1ccccn1 (stereo unspecified),–,"inconclusive: 29.1 µM [cytotoxic, single point]",–
CCN(CC(=O)Nc1cc(Cl)ccc1C)C(=O)C1CC(=O)N(Cc2ccccc2)C1 (stereo unspecified),inconclusive,–,–
CCNC(=O)COc1ccc(/C=C2\COc3ccccc3C2=O)cc1OC,–,active: 3.66 µM,–
Cc1c(C#N)c2ncn(Cc3ccccc3)c(=O)c2n1-c1ccccc1,inconclusive: 17.5%,–,–
CCN(C(=O)N(CC)c1ccccc1)c1ccccc1,inconclusive: -21.3%,–,–

# An excerpt from above in order of SMILES length, rising:
SMILES,"lipid storage change, negative = inhibition",Potency,outcome
CN1CCN(CCC(=O)Nc2ccccc2)CC1,inconclusive: 17.9%,–,–
Cc1cc(=O)[nH]c(SCn2nnc3ccccc3c2=O)n1,–,"inconclusive: 3.26 µM [falling, single point]",–
CC(=O)Oc1ccc(N2C(=O)CC(N3CCOCC3)C2=O)cc1 (stereo unspecified),inconclusive: 47.5%,–,–
Cc1ccc(N(CC(=O)Nc2ccc(S(=O)(=O)N3CCOCC3)cc2)S(C)(=O)=O)cc1C,–,"inconclusive: 0.651 µM [falling, full curve, poor fit]",–

# (cont.)

SMILES,"lipid storage change, negative = inhibition",Potency,outcome
CCOc1ccc(NC(=O)c2cccc(NC3=NC4CS(=O)(=O)CC4S3)c2)cc1 (stereo unspecified),inconclusive: 16.6%,–,–
CCOc1ccc(C(=O)Nn2cnnc2)cc1,inconclusive: -9.66%,–,–
S=C(NCc1ccccc1)NCc1ccco1,–,"inconclusive: 4.61 µM [falling, single point]",–
CC(C)(Oc1ccc(Cl)cc1)C(=O)OCC(=O)NCCc1ccc(S(N)(=O)=O)cc1,–,"inconclusive: 0.291 µM [falling, full curve]",–
CC1(C)CC(=O)C(Sc2nnc(-c3ccc(NS(C)(=O)=O)cc3)n2Cc2ccco2)C(=O)C1,inconclusive: 9.24%,–,–
Cc1cc(C(=O)CSc2nc3ccccc3n2C)c(C)n1C,–,"inconclusive: 5.17 µM [rising, single point]",–
CCCCC(=O)NC(=S)Nc1ccccc1N1CCCCC1,inconclusive: 28.9%,–,–
COc1ccc(C(C)=O)cc1COC(=O)c1cccc(N(C)C)c1,–,"inconclusive: 0.231 µM [activator, full curve, poor fit]",–
COc1ccc(S(=O)(=O)N2CCN(C(=O)C3CC3)CC2)cc1,inactive: -28.4%,–,–
Cc1cc(N)n(-c2ccccc2)n1,inconclusive: -6.44%,–,–
O=C(NC1CCN(Cc2ccc(F)cc2)CC1)c1ccccc1,–,"inconclusive: 29.1 µM [activator, single point]",–
CCCCNC(=O)c1onc(CSc2ccc(C)c(C)c2)c1C(=O)O,inconclusive: 1.73%,–,–
COc1cccc(OCc2cc(C(=O)N3CCN(C4CCCCC4)C(=O)C3)no2)c1,inconclusive: -56.1%,–,–
COc1ccc(OC)c(CCNC(=O)CN2C(=O)COc3ccc(S(=O)(=O)N4CCOCC4)cc32)c1,inconclusive: 12.4%,–,–
CC(C)NC(=O)NNc1c(Cl)cncc1Cl,inconclusive: -9.24%,–,–
CCc1ccc(N=C2NC(=O)/C(=C/c3cc(OC)c(O)c(OC)c3)S2)cc1,inconclusive: -100%,–,–
Cc1ccc(S(=O)(=O)Nc2ccncc2)c(C)c1,inconclusive: 12.8%,–,–
Cc1nnc(NC(=O)C2CCCCC2)s1,inconclusive: 0.863%,–,–
COc1cccc(C2(O)CCN(CC(=O)NCC3CC3)CC2)c1,–,"inconclusive: 0.651 µM [falling, single point]",–
COc1ccccc1/C=C\C(=O)NCC(=O)N/N=C(\C)Cc1ccccc1,inconclusive: -15.1%,–,–
CS(=O)(=O)c1ncc(Cl)c(C(=O)Nc2ccc(OC(F)F)cc2)n1,–,active: 18.4 µM,–
CC1Cc2cc(S(=O)(=O)N3CCN(c4ccccc4F)CC3)ccc2N1C(=O)C1CC1 (stereo unspecified),inconclusive: 13.7%,–,–
O=C(N/N=C/C=N/NC(=O)c1ccco1)c1ccco1,–,"inconclusive: 6.51 µM [activator, single point]",–
CNC(=O)c1ccc(N(Cc2ccccc2C)S(C)(=O)=O)cc1,–,"inconclusive: 0.146 µM [falling, full curve]",–
c1ccc(Cn2nnc3c(N4CCN(Cc5ccc6c(c5)OCO6)CC4)ncnc32)cc1,–,"inconclusive: 16.4 µM [activator, single point]",–
CCNc1nnc(SCC(=O)c2c(N)n(C3CC3)c(=O)[nH]c2=O)s1,–,"inconclusive: 0.731 µM [activator, full curve, poor fit]",–

SMILES,"lipid storage change, negative = inhibition",Potency,outcome
COc1cc(/C=C/C(=O)OCC(=O)Nc2ccc(S(=O)(=O)N3CCCC3)cc2)ccc1O,inconclusive: 16.4%,–,–
O=c1oc2ccccc2c(Nc2ccc3ccccc3c2)c1[N+](=O)[O-],inconclusive: 128%,–,–
N/C(=N\OC(=O)c1ccc([N+](=O)[O-])cc1)c1ccccn1,inconclusive: -49.1%,–,–
CCCn1c(C)cc(/C=C(\C#N)C(=O)OCC(=O)Nc2cccc(S(N)(=O)=O)c2)c1C,inconclusive: 13.3%,–,–
COc1ccccc1OCc1nnc(SCC(=O)N2CCCCC2)o1,inconclusive: 44.9%,–,–
c1ccc(CCc2nc(-c3ccc(-n4cccc4)cc3)no2)cc1,inconclusive: -56.8%,–,–
O=C(CCc1nc2ccccc2[nH]c1=O)OCC(=O)c1cccc2ccccc12,inconclusive: 6.99%,–,–
O=C(c1ccco1)N(CC1CCCO1)c1nc(-c2ccccc2)cs1 (stereo unspecified),–,"inconclusive: 0.13 µM [activator, full curve, poor fit]",–
NS(=O)(=O)c1ccc(S(=O)(=O)N2CCCC2)cc1,inconclusive: -0.938%,–,–
O=C1OC(c2ccco2)=N/C1=C\c1ccc(-c2cccc(C(F)(F)F)c2)o1,–,"inconclusive: 0.164 µM [rising, full curve, poor fit]",–
CCN(CC)S(=O)(=O)N1CCC(C(=O)NC(C)CCc2ccccc2)CC1 (stereo unspecified),inconclusive: -85.2%,–,–
COc1ccc(OCC(=O)Nc2ccc(C(=O)Nc3ccccc3C(=O)O)cc2)cc1,–,"inconclusive: 25.9 µM [activator, single point]",–
COc1cccc(NC(=O)CN(C)C(=O)c2ccccc2Sc2ccccc2C#N)c1,–,"inconclusive: 7.31 µM [falling, partial curve, poor fit]",–
CCCCN(C(=O)c1cccc(-n2cccc2)c1)c1c(N)n(Cc2ccccc2)c(=O)[nH]c1=O,inconclusive: -50.2%,–,–
CC1(C)CC(=O)c2sc(N3CCCCC3)nc2C1,inconclusive: 22.2%,–,–
O=c1[nH]c2ccc(Cl)cc2c(-c2ccccc2)c1N1CCN(CCO)CC1,inconclusive: 10.9%,–,–
C=CCN(C(=O)c1csnn1)C(C(=O)NC1CCCCC1)c1ccccc1F (stereo unspecified),–,active: 13 µM,–
COC(=O)C1=C(C)N(CCc2ccccc2)C(=O)C1,inconclusive: 15.8%,–,–
COc1ccc(-c2cc(=O)oc3cc(OCC(=O)NCCCn4ccnc4)ccc23)cc1,–,"inconclusive: 32.6 µM [falling, single point]",–
C#CCOc1c(Br)cc(/C=C2/C(=O)ON=C2C)cc1OCC,inconclusive: 21.8%,–,–
COc1cc2cc(C(c3nnnn3Cc3ccc(F)cc3)N3CCCCCC3)c(=O)[nH]c2cc1OC (stereo unspecified),–,"inconclusive: 1.3 µM [activator, partial curve, poor fit]",–
Cc1ccc(NS(=O)(=O)c2cc(C(=O)N3CCN(C)CC3)ccc2C)cc1C,–,–,inactive [at 46.1 µM]
CCn1cc(C(=O)NCc2ccc3c(c2)OCO3)c(=O)c2cc(F)c(N3CCN(C(=O)c4ccco4)CC3)cc21,–,"inconclusive: 29.1 µM [activator, single point]",–
COc1cccc(/C=N/NC(=O)C(=O)NCc2ccco2)c1O,inconclusive: -8.23%,–,–

# Shown tab-delimited: entries from further up
SMILES	lipid storage change, negative = inhibition	Potency	outcome
Cc1nnc(NC(=O)C2CCCCC2)s1	inconclusive: 0.863%	–	–
COc1cccc(C2(O)CCN(CC(=O)NCC3CC3)CC2)c1	–	inconclusive: 0.651 µM [falling, single point]	–
